## Results from one PubChem assay

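Malaria parasite (P. falciparum) lines kept in red blood cells; parasite DNA is measured by SYBR Green fluorescence after lysis, 72 h after compound addition.
Each compound was titrated across a series from about 0.000037 to 29 µM.
The number is the fitted AC50, the concentration giving a half-maximal change in signal; a lower value means higher potency, whether the curve shows a decrease or an increase.
Calls follow the curve class and fit quality: every row here is inconclusive, covering signal-raising curves and weak, poorly fitted, partial or highest-dose-only inhibition curves.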

Values are in nM.
All entries here are filed as inconclusive.
These entries are mostly ones the record files as inconclusive; other results of the assay are not listed here.
A potency from a partial, single-point or poor curve is only a rough figure.
Some entries filed as inconclusive have a full curve.

SMILES | setting | fitted potency (nM) | curve as filed
Nc1c2c(nc3ccccc13)CCCC2 | CP215 | 19011 | inhibitor, single point
Nc1c2c(nc3ccccc13)CCCC2 | ATS95 | 12589 | inhibitor, single point
Nc1c2c(nc3ccccc13)CCCC2 | PAD | 12589 | inhibitor, single point
Nc1c2c(nc3ccccc13)CCCC2 | P94_40 | 10000 | inhibitor, single point
Nc1c2c(nc3ccccc13)CCCC2 | ICS | 11220 | inhibitor, single point
Nc1c2c(nc3ccccc13)CCCC2 | CP286 | 11220 | inhibitor, single point
Nc1c2c(nc3ccccc13)CCCC2 | W2 | 19011 | inhibitor, single point
Nc1c2c(nc3ccccc13)CCCC2 | CP211 | 13459 | inhibitor, single point
Nc1c2c(nc3ccccc13)CCCC2 | CP305 | 16944 | inhibitor, single point
Nc1c2c(nc3ccccc13)CCCC2 | N140 | 17782 | inhibitor, single point
Nc1c2c(nc3ccccc13)CCCC2 | CP297 | 3381 | inhibitor, full curve
Nc1c2c(nc3ccccc13)CCCC2 | CP260 | 10000 | inhibitor, single point
Nc1c2c(nc3ccccc13)CCCC2 | DIV14 | 19011 | inhibitor, single point
Nc1c2c(nc3ccccc13)CCCC2 | CP269 | 16944 | inhibitor, single point
Nc1c2c(nc3ccccc13)CCCC2 | CP194 | 9528 | inhibitor, single point
Nc1c2c(nc3ccccc13)CCCC2 | CP329 | 15101 | inhibitor, single point
Nc1c2c(nc3ccccc13)CCCC2 | CP247 | 12589 | inhibitor, single point
Nc1c2c(nc3ccccc13)CCCC2 | TAB165 | 17782 | inhibitor, single point
Nc1c2c(nc3ccccc13)CCCC2 | CP185 | 17782 | inhibitor, single point
Nc1c2c(nc3ccccc13)CCCC2 | DFO2036 | 17782 | inhibitor, single point
Nc1c2c(nc3ccccc13)CCCC2 | CP335 | 19011 | inhibitor, single point
Nc1c2c(nc3ccccc13)CCCC2 | CP191 | 10000 | inhibitor, single point
Nc1c2c(nc3ccccc13)CCCC2 | P93_24 | 11220 | inhibitor, single point
Nc1c2c(nc3ccccc13)CCCC2 | CP237 | 10000 | inhibitor, single point
Nc1c2c(nc3ccccc13)CCCC2 | CP192 | 19011 | inhibitor, partial curve, poor fit
Nc1c2c(nc3ccccc13)CCCC2 | GB4 | 16944 | inhibitor, single point
Nc1c2c(nc3ccccc13)CCCC2 | CP256 | 8912 | inhibitor, single point
Nc1c2c(nc3ccccc13)CCCC2 | CP203 | 8492 | inhibitor, partial curve
Nc1c2c(nc3ccccc13)CCCC2 | PC26 | 19011 | inhibitor, single point
Nc1c2c(nc3ccccc13)CCCC2 | CP265 | 17782 | inhibitor, single point
Nc1c2c(nc3ccccc13)CCCC2 | CP262 | 19011 | inhibitor, single point
Nc1c2c(nc3ccccc13)CCCC2 | AA1029 | 11220 | inhibitor, single point
Nc1c2c(nc3ccccc13)CCCC2 | ATS189 | 17782 | inhibitor, single point
Nc1c2c(nc3ccccc13)CCCC2 | CP325 | 19011 | inhibitor, single point
O=C1c2ccccc2C(=O)c2ccccc21 | P93_24 | 14125 | inhibitor, single point
O=C1c2ccccc2C(=O)c2ccccc21 | ECU | 14125 | inhibitor, single point
O=C1c2ccccc2C(=O)c2ccccc21 | ATS189 | 17782 | inhibitor, single point
O=C1c2ccccc2C(=O)c2ccccc21 | N140 | 17782 | inhibitor, single point
O=C1c2ccccc2C(=O)c2ccccc21 | DIV30 | 10690 | inhibitor, partial curve, poor fit
O=C1c2ccccc2C(=O)c2ccccc21 | CP269 | 19011 | inhibitor, single point
O=C1c2ccccc2C(=O)c2ccccc21 | CP191 | 17782 | inhibitor, single point

Once more, the final 4:

* O=C1c2ccccc2C(=O)c2ccccc21 [N140] | fitted potency 17782 nM (inhibitor, single point)
* O=C1c2ccccc2C(=O)c2ccccc21 [DIV30] | fitted potency 10690 nM (inhibitor, partial curve, poor fit)
* O=C1c2ccccc2C(=O)c2ccccc21 [CP269] | fitted potency 19011 nM (inhibitor, single point)
* O=C1c2ccccc2C(=O)c2ccccc21 [CP191] | fitted potency 17782 nM (inhibitor, single point)

The results are deposited in PubChem (AID504749; NCATS, 2011).